# Some results were stated once for a whole list of compounds, not compound by compound.
# Tests used:
# Format in all cases: in vivo
# [1] = system: wheat Puccinia recondita; assay: Test Example 2: wheat rust, foliar spray after inoculation; conditions: wheat (Shirogane), 200 ppm foliar spray 1 day after inoculation, 7 days after spraying
# [2] = system: cucumber Sphaerotheca fuliginea; assay: Test Example 4: cucumber powdery mildew, foliar spray before inoculation; conditions: cucumber (Sagamihanjiro), 200 ppm foliar spray, inoculated after spraying, 11 days
# [3] = system: Magnaporthe grisea; conditions: rice (Nipponbare), 500 ppm foliar spray, contact with affected seedlings for 6 days
# [4] = system: wheat Puccinia recondita; assay: Test Example 3: wheat rust, foliar spray 5 days before inoculation; conditions: wheat (Shirogane), 200 ppm foliar spray, inoculated 5 days after spraying
# [5] = system: wheat Septoria tritici; assay: Test Example 5: wheat Septoria tritici, foliar spray before inoculation; conditions: wheat (Apogee), 200 ppm foliar spray, inoculated 4 days after spraying
# [6] = system: barley Rhynchosporium secalis; assay: Test Example 7: barley Rhynchosporium secalis, foliar spray before inoculation; conditions: barley (Mikamo Golden), 200 ppm foliar spray, inoculated 2 days after spraying
# [7] = system: barley Pyrenophora teres; assay: Test Example 6: barley Pyrenophora teres, foliar spray before inoculation; conditions: barley (Nishinohoshi), 200 ppm foliar spray, inoculated 2 days after spraying
SMILES,lesion area of treated plants relative to the lesion area in the non-treated plant [2],lesion area of treated plants relative to the lesion area in the non-treated plant [5],lesion area of treated plants relative to the lesion area in the non-treated plant [7],other results
"CCN(C)/C=N/c1cc(C)c(OCC2(C)CC2)cc1C [1-1, N′-{2,5-dimethyl-4-[(1-methylcyclopropyl)methoxy]phenyl}-N-ethyl-N-methylformamidine]",≤ 30%,–,–,lesion area of treated plants relative to the lesion area in the non-treated plant [1]: ≤ 30%; lesion area of treated plants relative to the lesion area in the non-treated plant [3]: ≤ 30%
"CCCN(C)/C=N/c1cc(C)c(OCC2(C)CC2)cc1C [1-2, N′-{2,5-dimethyl-4-[(1-methylcyclopropyl)methoxy]phenyl}-N-methyl-N-propylformamidine]",≤ 30%,–,–,lesion area of treated plants relative to the lesion area in the non-treated plant [4]: ≤ 30%
"CCCCN(C)/C=N/c1cc(C)c(OCC2(C)CC2)cc1C [1-3, N-butyl-N′-{2,5-dimethyl-4-[(1-methylcyclopropyl)methoxy]phenyl}-N-methylformamidine]",–,–,–,lesion area of treated plants relative to the lesion area in the non-treated plant [4]: ≤ 30%
"CCN(C)/C=N/c1cc(C)c(OCC2CC2C)cc1C (stereo not shown) [1-8, N′-{2,5-dimethyl-4-[(2-methylcyclopropyl)methoxy]phenyl}-N-ethyl-N-methylformamidine]",–,≤ 30%,–,lesion area of treated plants relative to the lesion area in the non-treated plant [6]: ≤ 30%
"CCCN(C)/C=N/c1cc(C)c(OC(C)C2CC2)cc1C (stereo not shown) [1-11, N′-[4-(1-cyclopropylethoxy)-2,5-dimethylphenyl]-N-methyl-N-propylformamidine]",–,≤ 30%,–,–
"CCCC1CC1COc1cc(C)c(/N=C/N(C)CC)cc1C (stereo not shown) [1-12, N′-{2,5-dimethyl-4-[(2-propylcyclopropyl)methoxy]phenyl}-N-ethyl-N-methylformamidine]",–,≤ 30%,≤ 30%,lesion area of treated plants relative to the lesion area in the non-treated plant [6]: ≤ 30%
"CCN(C)/C=N/c1cc(C)c(OCC2C(C)(C)C2(C)C)cc1C [1-14, N′-{2,5-dimethyl-4-[(2,2,3,3-tetramethylcyclopropyl)methoxy]phenyl}-N-ethyl-N-methylformamidine]",–,≤ 30%,≤ 30%,–
"CCCN(C)/C=N/c1cc(C)c(OCC2C(C)(C)C2(C)C)cc1C [1-15, N′-{2,5-dimethyl-4-[(2,2,3,3-tetramethylcyclopropyl)methoxy]phenyl}-N-methyl-N-propylformamidine]",–,≤ 30%,–,–
"CCN(C)/C=N/c1cc(C)c(OCC2CC2(Br)Br)cc1C (stereo not shown) [1-16, N′-{4-[(2,2-dibromocyclopropyl)methoxy]-2,5-dimethylphenyl}-N-ethyl-N-methylformamidine]",≤ 30%,–,≤ 30%,lesion area of treated plants relative to the lesion area in the non-treated plant [1]: ≤ 30%; lesion area of treated plants relative to the lesion area in the non-treated plant [3]: ≤ 30%

# From US9309191B2 (priority 2013, dated 2016)
